The assay has as its target Flag-tagged Vimentin ∆Head-Tail deletion mutant. The experiment in a line: co-IP; 293T cells co-transfected with Flag-tagged Vimentin (FL or deletion mutants) and Myc-NEURL3; western blot. (Immunoblotting shows a protein as a band on a membrane.)

No constants are given. Whether binding was seen depends on the method and setting. In cells and extracts the contact can be indirect. Where a sequence is shown, tags or fusion partners need not be part of it.

B1: Myc-NEURL3 (enzyme, UniProt Q96EH8 1-262)
chain: MGAQLCFEANAKAPREALRFHAEAKGAQVRLDTRGCIAHRRTTFHDGIVFSQRPVRLGERVALRVLREESGWCGGLRVGFTRLDPACVSVPSLPPFLCPDLEEQSPTWAAVLPEGCALTGDLVRFWVDRRGCLFAKVNAGCRLLLREGVPVGAPLWAVMDVYGTTKAIELLDPTASRLPTPMPWDLSNKAVPEPKATPGEECAICFYHAANTRLVPCGHTYFCRYCAWRVFSDTAKCPVCRWQIEAVAPAQGPPALRVEEGS
Regarding B1, the binding entry is “no binding”.

The values above are taken from article PMC10775674.
